From article doi:10.1101/354316
These are yes or no findings as the source states them, for the method shown. Binding seen in cells or lysates may run through a third protein. Here binding means that the protein was enriched with, or labelled near, the bait; the list need not be complete. Each block holds one molecule with its values, some of them ahead of it.

Chains of the proteins cited; added tags and fusions are not shown. Lines headed by an entry give the natural chain unless they say otherwise; changes in a name come on top.
UniProt Q9NZM3: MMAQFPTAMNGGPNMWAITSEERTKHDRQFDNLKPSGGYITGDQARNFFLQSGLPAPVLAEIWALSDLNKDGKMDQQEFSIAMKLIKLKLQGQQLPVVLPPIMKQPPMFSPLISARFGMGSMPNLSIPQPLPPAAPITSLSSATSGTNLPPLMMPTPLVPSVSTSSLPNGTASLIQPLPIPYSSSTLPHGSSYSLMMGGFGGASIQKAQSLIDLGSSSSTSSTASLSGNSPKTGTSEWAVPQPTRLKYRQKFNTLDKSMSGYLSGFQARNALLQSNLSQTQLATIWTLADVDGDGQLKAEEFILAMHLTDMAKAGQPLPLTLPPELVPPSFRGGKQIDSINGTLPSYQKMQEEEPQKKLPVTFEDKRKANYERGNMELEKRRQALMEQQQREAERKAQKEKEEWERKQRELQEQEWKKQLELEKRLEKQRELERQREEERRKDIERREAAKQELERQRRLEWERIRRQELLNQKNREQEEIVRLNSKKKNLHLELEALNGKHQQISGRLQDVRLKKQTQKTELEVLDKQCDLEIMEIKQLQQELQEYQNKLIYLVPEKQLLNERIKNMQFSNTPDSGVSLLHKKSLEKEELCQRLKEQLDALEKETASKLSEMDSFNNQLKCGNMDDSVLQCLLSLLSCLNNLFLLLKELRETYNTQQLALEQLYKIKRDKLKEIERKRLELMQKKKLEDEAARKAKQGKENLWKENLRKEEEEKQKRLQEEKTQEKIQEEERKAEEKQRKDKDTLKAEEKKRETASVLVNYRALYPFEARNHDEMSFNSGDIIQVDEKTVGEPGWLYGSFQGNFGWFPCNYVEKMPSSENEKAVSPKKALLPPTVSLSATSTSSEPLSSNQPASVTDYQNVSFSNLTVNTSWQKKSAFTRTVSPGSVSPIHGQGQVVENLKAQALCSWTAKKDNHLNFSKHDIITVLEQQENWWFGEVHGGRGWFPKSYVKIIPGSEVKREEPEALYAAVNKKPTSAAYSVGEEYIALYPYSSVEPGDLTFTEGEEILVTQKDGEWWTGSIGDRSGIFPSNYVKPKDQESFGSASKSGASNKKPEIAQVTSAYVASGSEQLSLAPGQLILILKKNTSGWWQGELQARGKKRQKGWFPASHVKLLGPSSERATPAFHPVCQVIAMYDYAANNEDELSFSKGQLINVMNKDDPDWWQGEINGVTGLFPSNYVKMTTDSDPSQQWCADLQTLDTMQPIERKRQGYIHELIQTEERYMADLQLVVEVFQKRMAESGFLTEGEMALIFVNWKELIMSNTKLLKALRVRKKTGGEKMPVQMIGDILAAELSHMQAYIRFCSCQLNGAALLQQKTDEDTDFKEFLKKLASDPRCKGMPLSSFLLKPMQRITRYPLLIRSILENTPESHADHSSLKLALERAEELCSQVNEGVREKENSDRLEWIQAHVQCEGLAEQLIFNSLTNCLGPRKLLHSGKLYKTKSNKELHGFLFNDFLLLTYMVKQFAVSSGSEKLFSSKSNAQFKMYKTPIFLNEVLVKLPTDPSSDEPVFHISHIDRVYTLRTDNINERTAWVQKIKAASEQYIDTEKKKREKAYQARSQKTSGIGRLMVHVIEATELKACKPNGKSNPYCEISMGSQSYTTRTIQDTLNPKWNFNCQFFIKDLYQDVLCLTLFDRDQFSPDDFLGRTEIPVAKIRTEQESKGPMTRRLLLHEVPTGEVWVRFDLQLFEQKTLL
UniProt Q9BRR9: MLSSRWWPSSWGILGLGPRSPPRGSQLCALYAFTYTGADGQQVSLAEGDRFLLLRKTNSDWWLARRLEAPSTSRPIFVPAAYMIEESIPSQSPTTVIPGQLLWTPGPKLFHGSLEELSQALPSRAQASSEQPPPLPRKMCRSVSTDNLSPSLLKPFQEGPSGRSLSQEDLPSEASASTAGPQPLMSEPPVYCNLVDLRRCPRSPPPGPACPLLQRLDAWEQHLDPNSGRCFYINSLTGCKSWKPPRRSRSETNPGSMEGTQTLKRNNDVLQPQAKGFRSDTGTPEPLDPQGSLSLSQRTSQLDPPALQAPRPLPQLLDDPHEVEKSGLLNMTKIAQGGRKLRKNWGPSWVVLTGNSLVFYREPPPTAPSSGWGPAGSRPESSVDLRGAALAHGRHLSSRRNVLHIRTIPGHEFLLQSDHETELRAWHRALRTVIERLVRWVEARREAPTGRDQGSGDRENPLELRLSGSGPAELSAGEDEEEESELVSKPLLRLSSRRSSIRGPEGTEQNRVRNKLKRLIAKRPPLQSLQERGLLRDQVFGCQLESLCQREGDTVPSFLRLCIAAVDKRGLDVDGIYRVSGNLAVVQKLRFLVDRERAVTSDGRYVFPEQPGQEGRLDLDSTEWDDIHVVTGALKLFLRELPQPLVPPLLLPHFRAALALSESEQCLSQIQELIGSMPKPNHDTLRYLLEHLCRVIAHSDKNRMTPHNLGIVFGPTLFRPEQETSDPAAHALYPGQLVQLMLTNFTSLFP
UniProt P35241: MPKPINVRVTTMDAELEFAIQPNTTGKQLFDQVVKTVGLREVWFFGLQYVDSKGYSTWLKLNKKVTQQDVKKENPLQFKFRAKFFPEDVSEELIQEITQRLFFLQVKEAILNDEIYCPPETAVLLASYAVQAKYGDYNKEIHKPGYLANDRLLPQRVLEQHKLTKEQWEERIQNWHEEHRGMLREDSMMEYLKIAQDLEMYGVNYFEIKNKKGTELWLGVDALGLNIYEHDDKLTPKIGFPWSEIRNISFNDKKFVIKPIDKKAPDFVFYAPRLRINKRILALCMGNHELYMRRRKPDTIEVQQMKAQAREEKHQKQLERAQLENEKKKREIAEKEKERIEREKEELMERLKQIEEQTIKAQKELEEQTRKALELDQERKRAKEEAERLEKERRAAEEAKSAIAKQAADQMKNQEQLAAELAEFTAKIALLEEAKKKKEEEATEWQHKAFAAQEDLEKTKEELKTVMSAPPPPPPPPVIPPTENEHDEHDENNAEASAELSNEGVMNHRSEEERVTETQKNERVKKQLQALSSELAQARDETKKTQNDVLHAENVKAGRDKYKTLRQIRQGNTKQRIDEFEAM
UniProt P46109: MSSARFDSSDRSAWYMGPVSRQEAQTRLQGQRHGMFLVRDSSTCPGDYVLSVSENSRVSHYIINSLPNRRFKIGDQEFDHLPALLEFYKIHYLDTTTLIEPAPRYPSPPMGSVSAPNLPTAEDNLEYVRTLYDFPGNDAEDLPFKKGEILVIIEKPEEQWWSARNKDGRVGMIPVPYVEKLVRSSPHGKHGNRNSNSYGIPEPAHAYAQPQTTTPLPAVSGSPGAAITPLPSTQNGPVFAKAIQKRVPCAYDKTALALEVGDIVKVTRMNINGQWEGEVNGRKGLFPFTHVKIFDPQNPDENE
UniProt P06396: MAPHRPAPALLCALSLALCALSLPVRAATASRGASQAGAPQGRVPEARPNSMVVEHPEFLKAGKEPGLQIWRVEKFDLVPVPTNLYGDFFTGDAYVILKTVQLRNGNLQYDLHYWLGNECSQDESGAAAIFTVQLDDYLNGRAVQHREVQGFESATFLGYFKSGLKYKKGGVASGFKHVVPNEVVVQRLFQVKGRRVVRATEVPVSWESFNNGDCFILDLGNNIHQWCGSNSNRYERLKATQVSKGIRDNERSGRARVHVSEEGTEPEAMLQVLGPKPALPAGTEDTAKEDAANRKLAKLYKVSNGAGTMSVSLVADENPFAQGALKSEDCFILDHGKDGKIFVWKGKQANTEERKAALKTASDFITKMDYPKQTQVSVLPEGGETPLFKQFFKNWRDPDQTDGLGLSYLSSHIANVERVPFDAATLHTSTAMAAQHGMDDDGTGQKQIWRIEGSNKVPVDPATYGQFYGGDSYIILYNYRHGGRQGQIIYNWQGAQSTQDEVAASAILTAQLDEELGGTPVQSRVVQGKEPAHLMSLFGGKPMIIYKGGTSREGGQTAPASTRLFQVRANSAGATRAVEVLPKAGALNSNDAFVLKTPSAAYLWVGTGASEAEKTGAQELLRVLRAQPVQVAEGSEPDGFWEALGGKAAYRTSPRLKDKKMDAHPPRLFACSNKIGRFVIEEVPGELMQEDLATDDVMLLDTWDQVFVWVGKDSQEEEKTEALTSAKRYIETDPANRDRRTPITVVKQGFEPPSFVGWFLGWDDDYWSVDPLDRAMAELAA

Tests used:
Assay in all cases: affinity purification with mass spectrometry
[1] = molecular target: ITSN2 (not stated (library cDNAs: human, mouse, rat or chimpanzee; Table S1)) (UniProt Q9NZM3)
[2] = molecular target: T1, ARHGEF15 (not stated (library cDNAs: human, mouse, rat or chimpanzee; Table S1)) (UniProt O94989)
T1 sequence: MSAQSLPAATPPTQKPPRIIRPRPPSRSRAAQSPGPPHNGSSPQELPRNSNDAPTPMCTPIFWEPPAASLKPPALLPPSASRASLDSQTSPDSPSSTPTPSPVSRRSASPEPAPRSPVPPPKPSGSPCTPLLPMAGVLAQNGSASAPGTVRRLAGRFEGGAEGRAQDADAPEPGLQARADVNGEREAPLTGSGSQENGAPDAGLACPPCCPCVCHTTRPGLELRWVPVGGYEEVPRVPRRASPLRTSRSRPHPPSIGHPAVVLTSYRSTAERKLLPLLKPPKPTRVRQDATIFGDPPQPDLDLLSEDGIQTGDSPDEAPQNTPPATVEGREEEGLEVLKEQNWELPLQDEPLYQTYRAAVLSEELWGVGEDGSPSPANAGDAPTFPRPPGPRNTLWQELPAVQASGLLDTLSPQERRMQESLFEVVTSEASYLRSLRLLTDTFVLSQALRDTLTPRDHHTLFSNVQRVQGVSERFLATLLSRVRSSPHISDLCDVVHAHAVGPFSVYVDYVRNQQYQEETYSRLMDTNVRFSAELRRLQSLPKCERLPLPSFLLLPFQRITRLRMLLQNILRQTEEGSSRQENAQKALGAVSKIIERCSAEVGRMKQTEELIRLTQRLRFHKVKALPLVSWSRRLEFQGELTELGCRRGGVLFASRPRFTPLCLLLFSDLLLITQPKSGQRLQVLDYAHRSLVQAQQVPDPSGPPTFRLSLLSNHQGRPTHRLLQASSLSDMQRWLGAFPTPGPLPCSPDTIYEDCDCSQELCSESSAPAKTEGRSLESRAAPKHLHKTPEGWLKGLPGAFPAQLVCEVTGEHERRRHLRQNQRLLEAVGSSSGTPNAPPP

[3] = molecular target: T2, ARHGAP11A (not stated (library cDNAs: human, mouse, rat or chimpanzee; Table S1)) (UniProt Q6P4F7)
T2 sequence: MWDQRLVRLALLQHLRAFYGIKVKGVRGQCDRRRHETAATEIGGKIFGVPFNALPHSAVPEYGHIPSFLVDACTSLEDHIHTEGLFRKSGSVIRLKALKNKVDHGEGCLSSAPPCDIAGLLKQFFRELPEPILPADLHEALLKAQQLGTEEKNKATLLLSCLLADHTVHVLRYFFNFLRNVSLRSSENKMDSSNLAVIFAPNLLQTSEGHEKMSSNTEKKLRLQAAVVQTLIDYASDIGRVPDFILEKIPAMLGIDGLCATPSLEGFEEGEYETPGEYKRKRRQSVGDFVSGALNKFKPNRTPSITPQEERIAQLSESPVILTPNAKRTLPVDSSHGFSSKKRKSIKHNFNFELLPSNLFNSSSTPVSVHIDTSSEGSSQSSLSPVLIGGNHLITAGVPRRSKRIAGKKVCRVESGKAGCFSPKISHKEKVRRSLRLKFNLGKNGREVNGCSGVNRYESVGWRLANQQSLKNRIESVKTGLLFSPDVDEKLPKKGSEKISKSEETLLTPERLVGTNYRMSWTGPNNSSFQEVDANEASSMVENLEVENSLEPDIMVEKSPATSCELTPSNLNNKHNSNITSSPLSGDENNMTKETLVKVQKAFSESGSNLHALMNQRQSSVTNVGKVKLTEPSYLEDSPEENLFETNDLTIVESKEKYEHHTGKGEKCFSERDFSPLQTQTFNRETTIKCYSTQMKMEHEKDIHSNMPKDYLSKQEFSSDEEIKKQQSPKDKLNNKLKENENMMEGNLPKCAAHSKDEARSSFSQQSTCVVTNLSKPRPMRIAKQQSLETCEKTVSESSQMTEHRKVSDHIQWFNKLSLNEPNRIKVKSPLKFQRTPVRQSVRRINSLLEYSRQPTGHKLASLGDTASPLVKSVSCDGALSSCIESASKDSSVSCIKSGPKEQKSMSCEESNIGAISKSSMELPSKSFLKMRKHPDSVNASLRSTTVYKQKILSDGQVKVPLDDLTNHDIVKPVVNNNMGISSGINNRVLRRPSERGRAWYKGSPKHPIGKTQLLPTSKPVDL

[4] = molecular target: ARHGAP9 (not stated (library cDNAs: human, mouse, rat or chimpanzee; Table S1)) (UniProt Q9BRR9)
[5] = molecular target: T3, VAV1 (not stated (library cDNAs: human, mouse, rat or chimpanzee; Table S1)) (UniProt P15498)
T3 sequence: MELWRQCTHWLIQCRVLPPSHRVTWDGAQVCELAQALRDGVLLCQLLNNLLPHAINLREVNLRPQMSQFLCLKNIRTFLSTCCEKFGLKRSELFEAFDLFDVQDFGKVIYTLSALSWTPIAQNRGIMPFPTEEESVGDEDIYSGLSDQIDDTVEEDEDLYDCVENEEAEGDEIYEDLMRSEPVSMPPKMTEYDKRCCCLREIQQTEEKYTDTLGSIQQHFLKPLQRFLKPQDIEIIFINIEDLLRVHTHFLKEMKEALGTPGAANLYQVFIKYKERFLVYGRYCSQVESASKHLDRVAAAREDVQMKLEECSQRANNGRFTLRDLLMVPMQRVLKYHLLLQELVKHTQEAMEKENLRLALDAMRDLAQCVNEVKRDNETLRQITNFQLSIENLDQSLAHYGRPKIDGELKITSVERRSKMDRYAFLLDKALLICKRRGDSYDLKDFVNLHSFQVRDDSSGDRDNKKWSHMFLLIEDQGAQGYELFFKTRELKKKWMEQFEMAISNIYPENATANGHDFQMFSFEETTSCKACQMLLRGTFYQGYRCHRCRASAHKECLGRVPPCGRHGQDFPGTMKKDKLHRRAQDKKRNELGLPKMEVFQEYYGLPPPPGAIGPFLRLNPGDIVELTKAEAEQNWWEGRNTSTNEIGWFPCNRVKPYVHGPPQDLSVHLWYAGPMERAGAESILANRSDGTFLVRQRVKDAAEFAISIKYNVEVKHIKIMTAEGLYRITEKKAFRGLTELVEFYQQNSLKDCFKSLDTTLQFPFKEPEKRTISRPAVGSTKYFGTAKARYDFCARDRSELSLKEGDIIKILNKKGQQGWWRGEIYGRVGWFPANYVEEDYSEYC

[6] = molecular target: T4, SYDE1 (not stated (library cDNAs: human, mouse, rat or chimpanzee; Table S1)) (UniProt Q6ZW31)
T4 sequence: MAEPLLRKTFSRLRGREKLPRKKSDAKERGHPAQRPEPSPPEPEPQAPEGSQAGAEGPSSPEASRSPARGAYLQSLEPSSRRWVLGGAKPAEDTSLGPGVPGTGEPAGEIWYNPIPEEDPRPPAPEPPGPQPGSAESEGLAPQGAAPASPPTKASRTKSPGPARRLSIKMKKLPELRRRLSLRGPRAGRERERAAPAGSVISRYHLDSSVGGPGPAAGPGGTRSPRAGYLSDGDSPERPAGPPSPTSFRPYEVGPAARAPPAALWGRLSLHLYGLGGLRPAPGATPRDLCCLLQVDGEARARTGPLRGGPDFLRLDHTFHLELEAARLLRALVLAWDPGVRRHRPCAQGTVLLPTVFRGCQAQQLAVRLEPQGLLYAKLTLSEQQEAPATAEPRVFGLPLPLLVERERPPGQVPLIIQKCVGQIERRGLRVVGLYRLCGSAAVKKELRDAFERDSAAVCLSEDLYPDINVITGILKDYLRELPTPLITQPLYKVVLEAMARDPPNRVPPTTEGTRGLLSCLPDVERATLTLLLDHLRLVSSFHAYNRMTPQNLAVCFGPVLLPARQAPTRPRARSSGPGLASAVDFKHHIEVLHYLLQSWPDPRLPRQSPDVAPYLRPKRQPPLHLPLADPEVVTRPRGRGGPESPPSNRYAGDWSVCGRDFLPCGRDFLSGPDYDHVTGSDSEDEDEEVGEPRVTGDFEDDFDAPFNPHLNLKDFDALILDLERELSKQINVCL

Molecule: Radixin (from UniProt P35241 1-583)
binding [2]: binds

Molecule: CRKL (from UniProt P46109 1-303)
binding [4]: binds

Molecule: Caldesmon (from UniProt Q05682-5)
binding [3]: binds

B1: FARP2 (protein, UniProt O94887 1-1054)
chain: MGEIEGTYRVLQTAGMRLGAQTPVGVSTLEPGQTLLPRMQEKHLHLRVKLLDNTMEIFDIEPKCDGQVLLTQVWKRLNLVECDYFGMEFQNTQSYWIWLEPMKPIIRQIRRPKNVVLRLAVKFFPPDPGQLQEEYTRYLFALQLKRDLLEERLTCADTTAALLTSHLLQSEIGDYDETLDREHLKVNEYLPGQQHCLEKILEFHQKHVGQTPAESDFQVLEIARKLEMYGIRFHMASDREGTKIQLAVSHMGVLVFQGTTKINTFNWSKVRKLSFKRKRFLIKLHPEVHGPYQDTLEFLLGSRDECKNFWKICVEYHTFFRLLDQPKPKAKAVFFSRGSSFRYSGRTQKQLVDYFKDSGMKRIPYERRHSKTHTSVRALTADLPKQSISFPEGLRTPASPSSANAFYSLSPSTLVPSGLPEFKDSSSSLTDPQVSYVKSPAAERRSGAVAGGPDTPSAQPLGPPALQPGPGLSTKSPQPSPSSRKSPLSLSPAFQVPLGPAEQGSSPLLSPVLSDAGGAGMDCEEPRHKRVPADEAYFIVKEILATERTYLKDLEVITVWFRSAVVKEDAMPATLMTLLFSNIDPIYEFHRGFLREVEQRLALWEGPSKAHTKGSHQRIGDILLRNMRQLKEFTSYFQRHDEVLTELEKATKRCKKLEAVYKEFELQKVCYLPLNTFLLKPIQRLLHYRLLLRRLCGHYSPGHHDYADCHDALKAITEVTTTLQHILIRLENLQKLTELQRDLVGIENLIAPGREFIREGCLHKLTKKGLQQRMFFLFSDMLLYTSKGVAGTSHFRIRGLLPLQGMLVEESDNEWSVPHCFTIYAAQKTIVVAASTRLEKEKWMLDLNSAIQAAKSGGDTAPALPGRTVCTRPPRSPNEVSLEQESEDDARGVRSSLEGHGQHRANTTMHVCWYRNTSVSRADHSAAVENQLSGYLLRKFKNSHGWQKLWVVFTNFCLFFYKTHQDDYPLASLPLLGYSVSIPREADGIHKDYVFKLQFKSHVYFFRAESKYTFERWMEVIQGASSSAGRAPSIVQDGPQPSSGLEGMVRGKEE
binding [5]: binds

Further lines, results first:

binding [1]: binds
Molecule: Vinculin (from UniProt P18206-2)

binding [3]: binds
Molecule: Gelsolin (from UniProt P06396)

binding [6]: binds
B2: ARHGAP28 (protein, UniProt Q9P2N2 1-729)
chain: MEVEDSGGVVLTAYHSYARAQPPNAESRCAPRAAASHPLSRKSIPRCRRINRMLSNESLHPPAFSRSNSEASVDSASMEDFWREIESIKDSSMGGQEEPPPAEVTPVDEGELEAEWLQDVGLSTLISGDEEEDGKALLSTLTRTQAAAVQKRYHTYTQTMRKKDKQSIRDVRDIFGVSESPPRDTCGNHTNQLDGTKEERELPRVIKTSGSMPDDASLNSTTLSDASQDKEGSFAVPRSDSVAILETIPVLPVHSNGSPEPGQPVQNAISDDDFLEKNIPPEAEELSFEVSYSEMVTEALKRNKLKKSEIKKEDYVLTKFNVQKTRFGLTEAGDLSAEDMKKIRHLSLIELTAFFDAFGIQLKRNKTEKVKGRDNGIFGVPLTVLLDGDRKKDPGVKVPLVLQKFFEKVEESGLESEGIFRLSGCTAKVKQYREELDAKFNADKFKWDKMCHREAAVMLKAFFRELPTSLFPVEYIPAFISLMERGPHVKVQFQALHLMVMALPDANRDAAQALMTFFNKVIANESKNRMSLWNISTVMAPNLFFSRSKHSDYEELLLANTAAHIIRLMLKYQKILWKVPSFLITQVRRMNEATMLLKKQLPSVRKLLRRKTLERETASPKTSKVLQKSPSARRMSDVPEGVIRVHAPLLSKVSMAIQLNNQTKAKDILAKFQYENSHGSSECIKIQNQRLYEIGGNIGEHCLDPDAYILDVYRINPQAEWVIKPQQSS
